This passage reports binding results from PMC12772958.

By UniProt entry, the sequences of proteins in these tests, tags left out.
UniProt Q96AC1: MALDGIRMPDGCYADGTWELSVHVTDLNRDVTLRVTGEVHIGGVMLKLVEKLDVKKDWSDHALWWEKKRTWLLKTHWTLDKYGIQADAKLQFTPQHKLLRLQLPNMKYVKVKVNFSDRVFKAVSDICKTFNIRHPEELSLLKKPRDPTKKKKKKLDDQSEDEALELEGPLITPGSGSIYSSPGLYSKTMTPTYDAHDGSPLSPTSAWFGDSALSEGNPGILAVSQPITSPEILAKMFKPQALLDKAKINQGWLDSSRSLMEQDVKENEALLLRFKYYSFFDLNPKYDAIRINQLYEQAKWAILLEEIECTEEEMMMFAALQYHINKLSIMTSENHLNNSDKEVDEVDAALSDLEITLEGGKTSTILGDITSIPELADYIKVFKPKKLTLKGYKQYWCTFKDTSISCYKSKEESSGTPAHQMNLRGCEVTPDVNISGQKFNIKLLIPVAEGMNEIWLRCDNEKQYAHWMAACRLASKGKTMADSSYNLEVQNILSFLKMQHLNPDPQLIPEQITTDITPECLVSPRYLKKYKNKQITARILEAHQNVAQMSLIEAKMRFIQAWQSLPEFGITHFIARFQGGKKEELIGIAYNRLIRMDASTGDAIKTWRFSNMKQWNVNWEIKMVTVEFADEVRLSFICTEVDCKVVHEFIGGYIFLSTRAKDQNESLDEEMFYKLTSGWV
UniProt P46939: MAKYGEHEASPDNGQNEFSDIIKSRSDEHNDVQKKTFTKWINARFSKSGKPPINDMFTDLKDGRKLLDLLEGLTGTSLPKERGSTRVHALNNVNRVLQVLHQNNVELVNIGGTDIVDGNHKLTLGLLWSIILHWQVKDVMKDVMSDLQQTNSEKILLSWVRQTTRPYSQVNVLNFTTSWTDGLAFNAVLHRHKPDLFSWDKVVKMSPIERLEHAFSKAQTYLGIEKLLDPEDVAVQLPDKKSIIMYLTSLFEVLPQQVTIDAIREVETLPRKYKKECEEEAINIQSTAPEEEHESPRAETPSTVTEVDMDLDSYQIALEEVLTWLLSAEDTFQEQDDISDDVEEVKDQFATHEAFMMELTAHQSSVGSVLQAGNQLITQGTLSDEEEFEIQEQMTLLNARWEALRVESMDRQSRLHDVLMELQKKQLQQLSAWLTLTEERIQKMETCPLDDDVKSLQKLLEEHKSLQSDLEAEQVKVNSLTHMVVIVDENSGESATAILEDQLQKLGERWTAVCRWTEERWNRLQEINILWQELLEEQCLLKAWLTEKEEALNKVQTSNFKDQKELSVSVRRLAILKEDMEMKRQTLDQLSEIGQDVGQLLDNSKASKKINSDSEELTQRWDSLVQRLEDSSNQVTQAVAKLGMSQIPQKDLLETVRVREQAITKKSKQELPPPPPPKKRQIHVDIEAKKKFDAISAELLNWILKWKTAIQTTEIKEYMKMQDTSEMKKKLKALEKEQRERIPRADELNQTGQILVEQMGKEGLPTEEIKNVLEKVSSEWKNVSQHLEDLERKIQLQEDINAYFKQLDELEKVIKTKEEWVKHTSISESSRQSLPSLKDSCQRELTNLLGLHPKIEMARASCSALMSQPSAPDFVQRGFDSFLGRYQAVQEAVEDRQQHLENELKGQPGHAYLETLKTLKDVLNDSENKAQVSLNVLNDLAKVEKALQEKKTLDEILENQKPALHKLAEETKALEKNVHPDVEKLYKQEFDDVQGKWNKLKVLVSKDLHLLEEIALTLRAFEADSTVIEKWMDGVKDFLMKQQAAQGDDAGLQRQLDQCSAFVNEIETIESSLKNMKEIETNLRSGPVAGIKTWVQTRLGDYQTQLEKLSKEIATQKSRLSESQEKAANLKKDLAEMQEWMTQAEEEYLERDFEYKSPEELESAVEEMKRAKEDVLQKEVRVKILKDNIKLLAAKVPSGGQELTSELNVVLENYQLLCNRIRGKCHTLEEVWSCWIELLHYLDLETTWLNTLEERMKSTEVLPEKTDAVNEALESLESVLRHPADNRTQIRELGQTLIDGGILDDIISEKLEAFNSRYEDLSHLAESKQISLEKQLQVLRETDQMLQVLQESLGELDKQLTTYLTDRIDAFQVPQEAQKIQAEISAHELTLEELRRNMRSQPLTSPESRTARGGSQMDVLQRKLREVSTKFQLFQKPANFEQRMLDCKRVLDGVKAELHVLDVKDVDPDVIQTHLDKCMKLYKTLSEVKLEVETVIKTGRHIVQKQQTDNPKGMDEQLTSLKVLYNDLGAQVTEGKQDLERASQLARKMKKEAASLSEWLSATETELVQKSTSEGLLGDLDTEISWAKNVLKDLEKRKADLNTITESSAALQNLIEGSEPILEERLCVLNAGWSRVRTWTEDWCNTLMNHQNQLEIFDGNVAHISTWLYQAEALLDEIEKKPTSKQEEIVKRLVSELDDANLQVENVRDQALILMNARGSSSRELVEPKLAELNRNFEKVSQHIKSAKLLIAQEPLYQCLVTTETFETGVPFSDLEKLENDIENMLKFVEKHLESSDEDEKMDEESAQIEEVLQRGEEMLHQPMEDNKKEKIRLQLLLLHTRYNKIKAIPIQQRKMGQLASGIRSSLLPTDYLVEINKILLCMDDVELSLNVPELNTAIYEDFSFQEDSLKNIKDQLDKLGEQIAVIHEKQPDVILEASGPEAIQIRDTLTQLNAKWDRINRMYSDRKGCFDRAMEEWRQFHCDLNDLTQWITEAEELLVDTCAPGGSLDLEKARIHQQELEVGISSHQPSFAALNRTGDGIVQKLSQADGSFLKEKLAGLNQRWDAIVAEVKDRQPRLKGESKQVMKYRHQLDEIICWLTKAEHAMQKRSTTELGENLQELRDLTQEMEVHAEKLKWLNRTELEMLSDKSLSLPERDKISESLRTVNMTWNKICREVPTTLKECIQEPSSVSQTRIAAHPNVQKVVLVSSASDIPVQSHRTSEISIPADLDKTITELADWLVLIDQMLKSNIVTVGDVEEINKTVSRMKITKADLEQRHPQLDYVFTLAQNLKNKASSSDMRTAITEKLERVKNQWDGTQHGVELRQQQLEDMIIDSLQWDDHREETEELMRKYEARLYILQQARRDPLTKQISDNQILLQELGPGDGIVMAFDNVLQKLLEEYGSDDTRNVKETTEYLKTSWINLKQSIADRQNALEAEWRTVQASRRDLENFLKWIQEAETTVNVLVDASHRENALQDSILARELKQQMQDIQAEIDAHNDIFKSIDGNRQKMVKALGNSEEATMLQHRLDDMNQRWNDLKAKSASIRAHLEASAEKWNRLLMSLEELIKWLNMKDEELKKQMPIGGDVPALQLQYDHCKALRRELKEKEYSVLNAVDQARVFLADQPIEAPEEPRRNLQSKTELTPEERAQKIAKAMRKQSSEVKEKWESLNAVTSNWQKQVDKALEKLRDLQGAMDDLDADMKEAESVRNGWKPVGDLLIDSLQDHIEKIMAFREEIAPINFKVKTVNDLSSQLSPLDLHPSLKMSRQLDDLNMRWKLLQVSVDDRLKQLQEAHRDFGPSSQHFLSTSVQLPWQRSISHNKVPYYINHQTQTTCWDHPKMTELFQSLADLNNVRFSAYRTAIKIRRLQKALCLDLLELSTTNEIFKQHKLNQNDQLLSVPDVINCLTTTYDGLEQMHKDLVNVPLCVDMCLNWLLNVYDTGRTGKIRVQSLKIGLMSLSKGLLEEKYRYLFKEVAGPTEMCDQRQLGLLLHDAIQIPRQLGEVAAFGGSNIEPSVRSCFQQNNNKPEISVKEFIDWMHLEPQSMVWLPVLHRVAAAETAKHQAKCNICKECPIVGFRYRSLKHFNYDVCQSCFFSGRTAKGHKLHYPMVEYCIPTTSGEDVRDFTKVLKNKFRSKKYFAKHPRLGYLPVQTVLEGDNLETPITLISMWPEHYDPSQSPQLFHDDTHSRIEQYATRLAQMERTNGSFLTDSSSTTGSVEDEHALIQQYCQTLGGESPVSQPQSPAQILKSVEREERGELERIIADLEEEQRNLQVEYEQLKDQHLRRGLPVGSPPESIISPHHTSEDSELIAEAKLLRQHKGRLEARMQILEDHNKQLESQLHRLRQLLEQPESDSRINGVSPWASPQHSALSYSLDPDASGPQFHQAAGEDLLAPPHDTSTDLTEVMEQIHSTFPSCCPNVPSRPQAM
UniProt Q96B97: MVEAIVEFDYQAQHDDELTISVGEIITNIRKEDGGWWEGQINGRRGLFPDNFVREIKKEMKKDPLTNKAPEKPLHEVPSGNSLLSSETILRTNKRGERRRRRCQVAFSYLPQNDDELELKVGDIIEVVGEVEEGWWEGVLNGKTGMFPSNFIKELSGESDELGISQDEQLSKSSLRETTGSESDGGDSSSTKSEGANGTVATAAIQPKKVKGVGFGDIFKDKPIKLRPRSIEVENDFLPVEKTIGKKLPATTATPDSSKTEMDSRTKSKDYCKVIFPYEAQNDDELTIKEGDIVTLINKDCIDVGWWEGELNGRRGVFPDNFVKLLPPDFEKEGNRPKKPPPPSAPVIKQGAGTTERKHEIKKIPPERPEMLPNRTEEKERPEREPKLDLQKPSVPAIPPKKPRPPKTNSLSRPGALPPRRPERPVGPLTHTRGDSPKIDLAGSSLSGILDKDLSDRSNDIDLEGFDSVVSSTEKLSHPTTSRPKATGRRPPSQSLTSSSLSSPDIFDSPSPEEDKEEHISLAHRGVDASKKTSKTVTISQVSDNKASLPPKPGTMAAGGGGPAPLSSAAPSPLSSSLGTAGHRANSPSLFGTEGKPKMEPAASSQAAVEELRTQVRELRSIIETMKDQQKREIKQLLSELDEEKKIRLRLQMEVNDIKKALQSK

Where two headings read alike, the source gives them in different places. Results are given in words; binding and its absence hold for the method and conditions named. Binding seen in cells or lysates may run through a third protein. These calls come from enrichment with a bait or labelling near it, and not all partners need be listed.

One test deals with T1, BirA*–MYO1E tail (human) (UniProt Q12965).
T1 sequence: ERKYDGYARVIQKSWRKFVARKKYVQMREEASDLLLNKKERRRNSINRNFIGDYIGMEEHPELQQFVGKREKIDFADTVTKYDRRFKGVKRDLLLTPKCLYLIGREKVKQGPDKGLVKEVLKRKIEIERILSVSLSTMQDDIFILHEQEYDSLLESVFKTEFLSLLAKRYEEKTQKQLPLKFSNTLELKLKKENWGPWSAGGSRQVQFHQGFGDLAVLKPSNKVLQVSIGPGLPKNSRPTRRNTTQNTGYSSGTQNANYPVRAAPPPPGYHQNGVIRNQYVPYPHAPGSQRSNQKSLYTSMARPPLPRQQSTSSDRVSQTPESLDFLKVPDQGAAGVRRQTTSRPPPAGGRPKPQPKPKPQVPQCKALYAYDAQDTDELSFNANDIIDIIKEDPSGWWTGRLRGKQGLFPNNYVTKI
Put plainly: proximity labelling; BioID in RPE cells stably expressing BirA*–MYO1E tail; biotin labelling; streptavidin pulldown; mass spectrometry, LFQ against BirA*-only control, threshold 4.5-fold or greater enrichment.

Test [1] deals with T2, BirA*–MYO1F tail (human) (UniProt O00160).
T2 sequence: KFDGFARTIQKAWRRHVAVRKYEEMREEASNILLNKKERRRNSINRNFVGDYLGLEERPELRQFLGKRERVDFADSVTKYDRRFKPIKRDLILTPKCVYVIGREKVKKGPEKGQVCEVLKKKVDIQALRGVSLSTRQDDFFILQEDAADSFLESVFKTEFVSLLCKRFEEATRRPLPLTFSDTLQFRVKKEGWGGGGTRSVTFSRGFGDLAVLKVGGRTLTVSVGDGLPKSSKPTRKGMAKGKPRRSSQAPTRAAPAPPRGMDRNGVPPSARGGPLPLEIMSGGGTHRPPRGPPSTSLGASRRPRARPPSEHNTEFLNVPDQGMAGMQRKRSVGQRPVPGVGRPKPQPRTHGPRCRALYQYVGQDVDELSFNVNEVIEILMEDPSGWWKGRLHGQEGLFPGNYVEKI
As to the kind of experiment: proximity labelling; BioID in U937 cells stably expressing BirA*–MYO1F tail, PHmut or ΔSH3; 50 µM biotin for 24 h; RIPA lysis; streptavidin beads; mass spectrometry, LFQ against BirA*-only control, threshold 4-fold or greater enrichment.

The target of test [2] is T3, BirA*–MYO1F tail PHmut (human) (UniProt O00160).
T3 sequence: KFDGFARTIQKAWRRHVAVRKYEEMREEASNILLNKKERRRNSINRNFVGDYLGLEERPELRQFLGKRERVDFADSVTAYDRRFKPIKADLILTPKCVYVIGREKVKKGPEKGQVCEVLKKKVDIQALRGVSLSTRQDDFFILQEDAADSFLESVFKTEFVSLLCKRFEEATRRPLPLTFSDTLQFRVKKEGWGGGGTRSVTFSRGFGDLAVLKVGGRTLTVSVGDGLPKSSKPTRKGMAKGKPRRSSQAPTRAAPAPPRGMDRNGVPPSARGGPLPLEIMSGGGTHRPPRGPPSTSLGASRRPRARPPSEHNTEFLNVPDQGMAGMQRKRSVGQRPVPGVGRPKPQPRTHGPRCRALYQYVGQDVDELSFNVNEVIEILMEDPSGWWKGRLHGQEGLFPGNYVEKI
The description is as above.

The target of test [3] is T2, BirA*–MYO1F tail (human). The test is described as above. This is another data set of the same source.
In test [4] the target is T3, BirA*–MYO1F tail PHmut (human). The description is as above. The source holds these as a separate data set.

For FERMT2 (from UniProt Q96AC1 1-680), the binding result with BirA*–MYO1E tail (human) is recorded as “binds”.
In the case of “utrophin (UTRN) (from UniProt P46939 1-3433)”, the binding entry (in the test with BirA*–MYO1F tail (human) [1]; in test [2]) was “binds” throughout.
For “SH3 domain-containing kinase-binding protein 1 (SH3KBP1) (from UniProt Q96B97 1-665)”, the binding result (with BirA*–MYO1F tail (human) [1]; in test [2]) was “binds” in each case.

B1: SH3 domain-binding protein 2 (SH3BP2) (protein, UniProt P78314 1-561)
chain: MAAEEMHWPVPMKAIGAQNLLTMPGGVAKAGYLHKKGGTQLQLLKWPLRFVIIHKRCVYYFKSSTSASPQGAFSLSGYNRVMRAAEETTSNNVFPFKIIHISKKHRTWFFSASSEEERKSWMALLRREIGHFHEKKDLPLDTSDSSSDTDSFYGAVERPVDISLSPYPTDNEDYEHDDEDDSYLEPDSPEPGRLEDALMHPPAYPPPPVPTPRKPAFSDMPRAHSFTSKGPGPLLPPPPPKHGLPDVGLAAEDSKRDPLCPRRAEPCPRVPATPRRMSDPPLSTMPTAPGLRKPPCFRESASPSPEPWTPGHGACSTSSAAIMATATSRNCDKLKSFHLSPRGPPTSEPPPVPANKPKFLKIAEEDPPREAAMPGLFVPPVAPRPPALKLPVPEAMARPAVLPRPEKPQLPHLQRSPPDGQSFRSFSFEKPRQPSQADTGGDDSDEDYEKVPLPNSVFVNTTESCEVERLFKATSPRGEPQDGLYCIRNSSTKSGKVLVVWDETSNKVRNYRIFEKDSKFYLEGEVLFVSVGSMVEHYHTHVLPSHQSLLLRHPYGYTGPR
B1: the binding entry (with BirA*–MYO1F tail (human) [3]; in test [4]) was “binds” throughout.

B2: ITGA6 (integrin alpha-6) (protein, UniProt P23229 24-1130)
chain: FNLDTREDNVIRKYGDPGSLFGFSLAMHWQLQPEDKRLLLVGAPRAEALPLQRANRTGGLYSCDITARGPCTRIEFDNDADPTSESKEDQWMGVTVQSQGPGGKVVTCAHRYEKRQHVNTKQESRDIFGRCYVLSQNLRIEDDMDGGDWSFCDGRLRGHEKFGSCQQGVAATFTKDFHYIVFGAPGTYNWKGIVRVEQKNNTFFDMNIFEDGPYEVGGETEHDESLVPVPANSYLGLLFLTSVSYTDPDQFVYKTRPPREQPDTFPDVMMNSYLGFSLDSGKGIVSKDEITFVSGAPRANHSGAVVLLKRDMKSAHLLPEHIFDGEGLASSFGYDVAVVDLNKDGWQDIVIGAPQYFDRDGEVGGAVYVYMNQQGRWNNVKPIRLNGTKDSMFGIAVKNIGDINQDGYPDIAVGAPYDDLGKVFIYHGSANGINTKPTQVLKGISPYFGYSIAGNMDLDRNSYPDVAVGSLSDSVTIFRSRPVINIQKTITVTPNRIDLRQKTACGAPSGICLQVKSCFEYTANPAGYNPSISIVGTLEAEKERRKSGLSSRVQFRNQGSEPKYTQELTLKRQKQKVCMEETLWLQDNIRDKLRPIPITASVEIQEPSSRRRVNSLPEVLPILNSDEPKTAHIDVHFLKEGCGDDNVCNSNLKLEYKFCTREGNQDKFSYLPIQKGVPELVLKDQKDIALEITVTNSPSNPRNPTKDGDDAHEAKLIATFPDTLTYSAYRELRAFPEKQLSCVANQNGSQADCELGNPFKRNSNVTFYLVLSTTEVTFDTPDLDINLKLETTSNQDNLAPITAKAKVVIELLLSVSGVAKPSQVYFGGTVVGEQAMKSEDEVGSLIEYEFRVINLGKPLTNLGTATLNIQWPKEISNGKWLLYLVKVESKGLEKVTCEPQKEINSLNLTESHNSRKKREITEKQIDDNRKFSLFAERKYQTLNCSVNVNCVNIRCPLRGLDSKASLILRSRLWNSTFLEEYSKLNYLDILMRAFIDVTAAAENIRLPNAGTQVRVTVFPSKTVAQYSGVPWWIILVAILAGILMLALLVFILWKCGFFKRSRYDDSVPRYHAVRIRKEEREIKDEKYIDNLEKKQWITKWNENESYS
As for B2, the binding result (with BirA*–MYO1F tail (human) [3]; in test [4]) was “binds” each time.

B3: CDC42EP1 (protein, UniProt Q00587 1-391)
chain: MPGPQGGRGAATMSLGKLSPVGWVSSSQGKRRLTADMISHPLGDFRHTMHVGRGGDVFGDTSFLSNHGGSSGSTHRSPRSFLAKKLQLVRRVGAPPRRMASPPAPSPAPPAISPIIKNAISLPQLNQAAYDSLVVGKLSFDSSPTSSTDGHSSYGLDSGFCTISRLPRSEKPHDRDRDGSFPSEPGLRRSDSLLSFRLDLDLGPSLLSELLGVMSLPEAPAAETPAPAANPPAPTANPTGPAANPPATTANPPAPAANPSAPAATPTGPAANPPAPAASSTPHGHCPNGVTAGLGPVAEVKSSPVGGGPRGPAGPALGRHWGAGWDGGHHYPEMDARQERVEVLPQARASWESLDEEWRAPQAGSRTPVPSTVQANTFEFADAEEDDEVKV
In the case of B3, in the test with BirA*–MYO1E tail (human), the binding result is listed as “binds”.
